Literature values as cited in patent US20120071533A1, “ANTI-FUNGAL FORMULATION” (priority 2009, published 2012).
At least one structure is not confirmed: it was looked up by name or label, or the drawing left a doubt. Some entries share one result that the patent states for a list of compounds.

System: onychomycosis
Settings: cited from earlier work; for mycological cure rates: oral, treatment periods of 12-16 weeks

Row | Compound | patients with both mycological cure and clinical cure (onychomycosis of the toenail, package insert) [%] | mycological cure rates
1 | CCC(C)n1ncn(-c2ccc(N3CCN(c4ccc(OCC5COC(Cn6cncn6)(c6ccc(Cl)cc6Cl)O5)cc4)CC3)cc2)c1=O (stereo not drawn) [itraconazole] | 14 | 70-80%
2 | CN(C/C=C/C#CC(C)(C)C)Cc1cccc2ccccc12 [terbinafine] |  | 70-80%
